Reference: patent US20240253023A1, “PERFLUORINATED AMIDE SALTS AND THEIR USES AS IONIC CONDUCTING MATERIALS” (priority 1996, published 2024)

Experiment: chiral catalysis of the Diels Alder reaction of methylvinylketone with cyclopentadiene
Settings: 200 μmoles catalyst, dichloromethane, 24 hours, room temperature; determined by RMN after chiral column

Compound	Enantiomeric Excesses [%]
CC1(C)C2CCC1(CS(=O)(=O)[N-]S(=O)(=O)C(F)(F)C(F)(F)C(F)(F)C(F)(F)F)C(=O)C2.CC1(C)C2CCC1(CS(=O)(=O)[N-]S(=O)(=O)C(F)(F)C(F)(F)C(F)(F)C(F)(F)F)C(=O)C2.CC1(C)C2CCC1(CS(=O)(=O)[N-]S(=O)(=O)C(F)(F)C(F)(F)C(F)(F)C(F)(F)F)C(=O)C2.[La+3] [LaCSTFSI, lanthanum salt of (1R)-(−)-10-camphor-sulfonyl)perfluorobutanesulfonyl)imide]	76
COCCCCN([C@H](C)C(C)C)S(=O)(=O)[N-]S(=O)(=O)C(F)(F)F.COCCCCN([C@H](C)C(C)C)S(=O)(=O)[N-]S(=O)(=O)C(F)(F)F.COCCCCN([C@H](C)C(C)C)S(=O)(=O)[N-]S(=O)(=O)C(F)(F)F.[La+3] [LaMBBMTFSI]	72
O=S(=O)([N-]S(=O)(=O)C(F)(F)F)OC(c1ccccc1)C(F)(F)F.O=S(=O)([N-]S(=O)(=O)C(F)(F)F)OC(c1ccccc1)C(F)(F)F.O=S(=O)([N-]S(=O)(=O)C(F)(F)F)OC(c1ccccc1)C(F)(F)F.[La+3] (stereo not drawn) [LaPTETFSI, lanthanum salt of trifluoromethanesulfonyl(R(−)-1-phenyl-2,2-trifluoroethanoxysulfonyl)imide]	69
scandium salt of trifluoromethanesulfonyl (N-(1S)-(+)-ketopinic-acetyl-N-methylsulfonyl)imide [ScKANTFSI]	67
